According to patent EP4678658A1:
No constants are given. Whether binding was seen depends on the method and setting. Some entries that bind do so weakly or less than the wild type.

The chains behind the UniProt entries cited, without tags or fusion partners. Residues count along the entry.
UniProt P04280, residues 17-392: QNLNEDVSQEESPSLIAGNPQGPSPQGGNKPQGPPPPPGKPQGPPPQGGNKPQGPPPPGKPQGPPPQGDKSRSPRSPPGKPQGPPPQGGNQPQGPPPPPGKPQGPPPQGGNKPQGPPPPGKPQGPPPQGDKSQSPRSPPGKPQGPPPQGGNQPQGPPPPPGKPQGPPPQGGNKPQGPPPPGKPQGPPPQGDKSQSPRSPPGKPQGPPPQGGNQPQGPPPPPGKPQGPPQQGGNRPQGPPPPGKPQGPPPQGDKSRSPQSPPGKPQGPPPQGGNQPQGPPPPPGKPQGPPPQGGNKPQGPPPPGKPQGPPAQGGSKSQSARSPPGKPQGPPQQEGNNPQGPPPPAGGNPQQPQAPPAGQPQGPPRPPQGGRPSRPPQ

Legend:
[1] = biological target: human PRB1 protein (human) (UniProt P04280); assay: sandwich ELISA: 2B3 mAb coated as capture, 8A10 mAb as detection, OD450; human saliva and serum samples
[2] = biological target: human PRB1 protein (human) (UniProt P04280); assay: pull-down assay from human serum
[3] = biological target: human PRB1 protein (human) (UniProt P04280); assay: sandwich ELISA of section 4: 2B3 mAb as capture, 8A10 mAb as detection; human saliva and serum samples
[4] = biological target: human PRB1 protein (human) (UniProt P04280); assay: Western blotting of human saliva

Measured: binding

B1: Rat anti-hPRB1 IgG(8A10) mAb (antibody, V domains shown)
VH: QVNLLQSGAALVKPGASVKLSCKASGYTFTDYYIHWVRQSHGKSLEWIGFINPNSGYTTYNEKFKSKATLTVDKSTNTAYMELSRLTSEDSATYYCTRFAMDAWGQGASVTVSS
VL: DVVVSQTPPTLSATIGQSVSISCRSSQSLLHSNGNTYLNWLLQRPGQPPQLLIYLVSRLESGVPNRFSGSGSGTDFTLKISGVEAEDLGVYYCVQSIHAPNTFGAGTKLELK
binds: [1] | [2] | [3] | [4]

B2: Rat anti-hPRB1 IgM(2B3) mAb (antibody, V domains shown)
VH: QIQLVQSGPELKKPGESVKISCKASGYTFTDYAMHWVKQAPGKGLKWMGWINTYTGKPTYADDCKGRFVFSLEASASTANLQISNLKNEDTATYFCAREMYTTDYYYVDYWGQGVMVTVSS
VL: DIHVTQSPASLSASPEEIVTITCQASQDIDSSLLWYQQKPGKSPQLLIYSATILADGVPSRFSGSRSGTQYSLKISRLQVEDIGTYYCLQFSSSPLTFGSGTKLEIK
binds: [1] | [3]
